Measured values: patent US20080213860

How the values were obtained:
Test in all cases: enzyme reaction in vitro
[1] = system: T1, BsmI R132D (Bacillus stearothermophilus NUB36); conditions: ds-DNA cleavage; protein in an extract; only the site is given
T1 sequence: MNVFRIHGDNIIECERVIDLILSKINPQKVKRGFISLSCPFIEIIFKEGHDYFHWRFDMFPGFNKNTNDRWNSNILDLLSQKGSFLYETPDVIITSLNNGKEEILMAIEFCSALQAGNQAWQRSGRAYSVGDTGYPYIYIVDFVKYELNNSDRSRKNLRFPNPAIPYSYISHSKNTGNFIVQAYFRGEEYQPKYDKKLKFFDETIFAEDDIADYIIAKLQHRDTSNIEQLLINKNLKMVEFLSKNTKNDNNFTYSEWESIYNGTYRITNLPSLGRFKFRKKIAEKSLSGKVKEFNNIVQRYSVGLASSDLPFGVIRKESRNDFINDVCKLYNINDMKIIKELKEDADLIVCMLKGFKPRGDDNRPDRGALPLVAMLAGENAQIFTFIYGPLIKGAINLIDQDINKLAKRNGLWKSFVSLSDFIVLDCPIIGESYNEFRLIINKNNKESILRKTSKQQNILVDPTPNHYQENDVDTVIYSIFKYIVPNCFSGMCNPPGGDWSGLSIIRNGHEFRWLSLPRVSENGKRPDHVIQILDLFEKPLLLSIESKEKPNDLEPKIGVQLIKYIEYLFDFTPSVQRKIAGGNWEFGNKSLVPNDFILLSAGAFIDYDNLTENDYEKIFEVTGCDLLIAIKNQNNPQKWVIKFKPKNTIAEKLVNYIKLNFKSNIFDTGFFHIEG

[2] = system: T2, BsmI R275D (Bacillus stearothermophilus NUB36); conditions: ds-DNA cleavage; protein in an extract; only the site is given
T2 sequence: T1 sequence with D132R, R275D

[3] = system: T3, BsmI R320D (Bacillus stearothermophilus NUB36); conditions: ds-DNA cleavage; protein in an extract; only the site is given
T3 sequence: T1 sequence with D132R, R320D

[4] = system: T4, BsmI R359D (Bacillus stearothermophilus NUB36); conditions: low nicking activity, low ds-DNA cleavage; protein in an extract; only the site is given
T4 sequence: T1 sequence with D132R, R359D

“GCATTC [pBR322 supercoiled plasmid (one BsmI site)]” was tested, and the “activity on this sequence” value [1] was “active”, the “activity on this sequence” value [2] was “active” and the “activity on this sequence” value [3] was “active”. For the same sequence, the “activity on this sequence” value [4] was “less active”.

Residue numbers refer to the chain shown, from its start. Construct, isoform or probe ends are uncertain for at least one entry. For some of these results: Weaker means in comparison with the reference protein, sequence or condition of that experiment. Tags and fusion partners may be left off the protein sequences shown.
